The campaign covered roughly 310,000 compounds. About 17,000 (5.5%) were called active. Inconclusive results, whose numbers are uncertain, are shown with a selection of clear calls. The call rests on the fitted dose curve; in most records, active means well fitted inhibition curve with a large enough effect; inconclusive means small, poorly fitted or top-dose-only effect, or effect the other way; inactive means no such curve, though single readings can be large or run the other way. Potencies of inconclusive entries are doubtful fits and often do not repeat.
Target: Nuclear receptor ROR-gamma (Mus musculus) (UniProt P51450)
Assay: qHTS for inhibitors of ROR gamma transcriptional activity; further: nearly all actives have a fitted effect of over 60% in size
Conditions: Drosophila S2 Gal4-RORgamma UAS-luciferase reporter, 20 h; activity change, negative = inhibition: at 53.6 µM (top of the series)
Summary of the method: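 Luciferase reporter read in Schneider cells carrying Gal4-RORγ (mouse) and UAS-Photinus luciferase; cells given compound 1 h before 700 uM copper sulfate induction, then incubated 20 h at ambient temperature.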
On the % scale 0 is the no-effect control and ±100 the full control effect; potency means the concentration at half of the fitted maximal effect.

By UniProt entry, the sequences of proteins in these tests, tags left out. Where a name states a change or a piece, a line headed by the entry shows the natural chain unless it says otherwise.
UniProt P51450: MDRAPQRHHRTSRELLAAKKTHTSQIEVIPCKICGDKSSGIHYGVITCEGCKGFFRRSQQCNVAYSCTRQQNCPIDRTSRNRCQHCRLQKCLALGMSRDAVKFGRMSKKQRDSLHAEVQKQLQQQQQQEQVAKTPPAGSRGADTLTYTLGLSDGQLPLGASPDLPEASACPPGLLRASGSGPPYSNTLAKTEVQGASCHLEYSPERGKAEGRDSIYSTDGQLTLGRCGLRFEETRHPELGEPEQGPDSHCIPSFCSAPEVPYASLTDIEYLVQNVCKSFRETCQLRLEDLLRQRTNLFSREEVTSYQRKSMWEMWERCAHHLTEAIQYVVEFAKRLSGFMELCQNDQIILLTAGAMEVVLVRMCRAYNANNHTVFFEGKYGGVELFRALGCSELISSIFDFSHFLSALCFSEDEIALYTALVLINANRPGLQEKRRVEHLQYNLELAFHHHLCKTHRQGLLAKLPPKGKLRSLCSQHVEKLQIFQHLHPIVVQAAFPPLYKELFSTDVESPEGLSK

| Structure (SMILES) | Potency | activity change, negative = inhibition |
| --- | --- | --- |
| Nc1nonc1-n1nnc(C(=O)N/N=C/c2ccccc2Cl)c1COc1ccc(F)cc1 | inconclusive: 0.126 µM [inhibitor, full curve, poor fit] | – |
| O=C(N/N=C/C1CC=CCC1)c1ccc(O)cc1O (stereo not given) | active: 1.12 µM | – |
| CN1CCN(NC(=O)Nc2cc(Cl)cc(Cl)c2)CC1 | inconclusive: 35.5 µM [activator, single point] | – |
| COc1ccc(-n2c(-c3ccccc3)c[n+]3c2CCC3)cc1 | inconclusive: 15.8 µM [activator, partial curve] | – |
| COc1ccc(-c2noc(CCC(=O)O)n2)cc1 | inconclusive: 2.82 µM [inhibitor, full curve, poor fit] | – |
| CCOC(=O)CC1CCCCN1C(=O)c1ccc2oc(CCc3ccccc3)nc2c1 (stereo not given) | inconclusive: 28.2 µM [activator, single point] | – |
| CCCCc1ccc(S(=O)(=O)NCCc2ccncc2)cc1 | inconclusive: 11.2 µM [activator, single point] | – |
| O=C(/C=C/Nc1ccccc1O)c1ccco1 | inconclusive: 22.4 µM [inhibitor, single point] | – |
| O=C(NCc1ccccc1)C1CCCN1C(=O)Nc1ccccc1[N+](=O)[O-] (stereo not given) | inconclusive: 0.0063 µM [inhibitor, full curve, poor fit] | – |
| CC1(C)CC(=O)C=C(Nc2ccc(F)cc2)C1 | inconclusive: 8.91 µM [inhibitor, partial curve] | – |
| CCCCCC(=O)c1c(O)cc(OC)c(Cl)c1O | inconclusive: 35.5 µM [inhibitor, single point] | – |
| CCCN(CCC)c1nc(-c2ccccn2)nc2ccccc12 | active: 3.55 µM | – |
| O=C(NC1CCCCC1)N1CCN(c2ccc([N+](=O)[O-])cc2)CC1 | inconclusive: 10 µM [activator, partial curve] | – |
| CCCS(=O)(=O)c1nc(S(=O)(=O)c2ccc(C)cc2)c(NCc2ccc3c(c2)OCO3)s1 | inconclusive: 0.0251 µM [inhibitor, full curve, poor fit] | – |
| CC(C)c1ccc(C(O)c2cnc(C(C)C)n2C)cc1 (stereo not given) | inconclusive: 35.5 µM [activator, single point] | – |
| O=C1c2oc3ccc(Cl)cc3c(=O)c2C(c2ccccn2)N1CCCN1CCOCC1 (stereo not given) | active: 22.4 µM | – |
| CC1(C)NC(=O)N(CCCCOc2ccc(Cl)cc2)C1=O | inconclusive: 25.1 µM [activator, single point] | – |
| Cc1cc(NC(=O)CC(F)(F)F)n(-c2ccccc2)n1 | – | inactive: -7.3% |
| CCC(=O)c1ccc(OCC(O)CNCc2ccc(F)cc2)cc1 (stereo not given) | inconclusive: 3.16 µM [inhibitor, partial curve, poor fit] | – |
| Cc1ccc(S(=O)(=O)NC(=O)NCc2ccc(Cl)cc2)cc1 | inconclusive: 5.62 µM [activator, partial curve, poor fit] | – |
| CCN(CC)S(=O)(=O)c1ccc(C)c(NC(=O)CSc2ncc(C(F)(F)F)cc2Cl)c1 | – | inactive: 13.3% |
| COc1ccc(-n2nc(C(=O)NCC(=O)N3CCN(c4ccccc4F)CC3)c3ccccc3c2=O)cc1 | inconclusive: 35.5 µM [inhibitor, single point] | – |
| Cc1ccc(N/C=C2\CCCCC2=O)nc1 | inconclusive: 12.6 µM [activator, partial curve] | – |
| O=C(O)CCn1cc(/C=C2/NC(=S)N(c3ccccc3)C2=O)c(-c2ccccc2)n1 | – | inactive: 14.3% |

An excerpt from above in order of formula weight, ascending.

| Structure (SMILES) | Potency | activity change, negative = inhibition |
| --- | --- | --- |
| O=C(/C=C/Nc1ccccc1O)c1ccco1 | inconclusive: 22.4 µM [inhibitor, single point] | – |
| CC1(C)CC(=O)C=C(Nc2ccc(F)cc2)C1 | inconclusive: 8.91 µM [inhibitor, partial curve] | – |
| COc1ccc(-c2noc(CCC(=O)O)n2)cc1 | inconclusive: 2.82 µM [inhibitor, full curve, poor fit] | – |
| O=C(N/N=C/C1CC=CCC1)c1ccc(O)cc1O (stereo not given) | active: 1.12 µM | – |
| CCCCCC(=O)c1c(O)cc(OC)c(Cl)c1O | inconclusive: 35.5 µM [inhibitor, single point] | – |
| Cc1cc(NC(=O)CC(F)(F)F)n(-c2ccccc2)n1 | – | inactive: -7.3% |
| COc1ccc(-n2c(-c3ccccc3)c[n+]3c2CCC3)cc1 | inconclusive: 15.8 µM [activator, partial curve] | – |
| CN1CCN(NC(=O)Nc2cc(Cl)cc(Cl)c2)CC1 | inconclusive: 35.5 µM [activator, single point] | – |
| CCCN(CCC)c1nc(-c2ccccn2)nc2ccccc12 | active: 3.55 µM | – |
| CC1(C)NC(=O)N(CCCCOc2ccc(Cl)cc2)C1=O | inconclusive: 25.1 µM [activator, single point] | – |
| CCCCc1ccc(S(=O)(=O)NCCc2ccncc2)cc1 | inconclusive: 11.2 µM [activator, single point] | – |
| O=C(NC1CCCCC1)N1CCN(c2ccc([N+](=O)[O-])cc2)CC1 | inconclusive: 10 µM [activator, partial curve] | – |
| Cc1ccc(S(=O)(=O)NC(=O)NCc2ccc(Cl)cc2)cc1 | inconclusive: 5.62 µM [activator, partial curve, poor fit] | – |
| O=C(NCc1ccccc1)C1CCCN1C(=O)Nc1ccccc1[N+](=O)[O-] (stereo not given) | inconclusive: 0.0063 µM [inhibitor, full curve, poor fit] | – |
| Nc1nonc1-n1nnc(C(=O)N/N=C/c2ccccc2Cl)c1COc1ccc(F)cc1 | inconclusive: 0.126 µM [inhibitor, full curve, poor fit] | – |
| CCCS(=O)(=O)c1nc(S(=O)(=O)c2ccc(C)cc2)c(NCc2ccc3c(c2)OCO3)s1 | inconclusive: 0.0251 µM [inhibitor, full curve, poor fit] | – |
| CCN(CC)S(=O)(=O)c1ccc(C)c(NC(=O)CSc2ncc(C(F)(F)F)cc2Cl)c1 | – | inactive: 13.3% |
| COc1ccc(-n2nc(C(=O)NCC(=O)N3CCN(c4ccccc4F)CC3)c3ccccc3c2=O)cc1 | inconclusive: 35.5 µM [inhibitor, single point] | – |

More structures.

| Structure (SMILES) | Potency | activity change, negative = inhibition |
| --- | --- | --- |
| COc1ccc(C(=O)n2nnc3ccccc32)cc1OC | inconclusive: 12.6 µM [inhibitor, single point] | – |
| Cc1cccc(C)c1OC(=O)CSc1nnc(-c2ccccc2O)o1 | inconclusive: 35.5 µM [inhibitor, single point] | – |
| CC(C)c1ccc(/C=C2\SC(N3CCCC3)=NC2=O)cc1 | inconclusive: 15.8 µM [activator, single point] | – |
| CCOC(=O)/C=C1\SCC(=O)N1CC(=O)NC(c1ccccc1)c1ccccc1 | – | inactive: 40.8% |
| COc1ccc(Oc2cc(NN3CCCCC3)c([N+](=O)[O-])cc2[N+](=O)[O-])cc1OC | inconclusive: 15.8 µM [activator, single point] | – |
| Cc1ccc(S(=O)(=O)N(Cc2cc3cc4c(cc3[nH]c2=O)OCCO4)CC2CCCO2)cc1 (stereo not given) | – | inactive: 10.2% |
| CCc1cccc(CC)c1NC(=S)NCc1nc2ccccc2[nH]1 | inconclusive: 15.8 µM [inhibitor, single point] | – |
| CCCCCCc1c(C)nc(-n2[nH]c(C)c(CCO)c2=O)[nH]c1=O | active: 3.55 µM | – |
| COc1cc(SC)ccc1C(=O)NCCc1c[nH]c2ccccc12 | inconclusive: 2.24 µM [activator, full curve] | – |
| COC(=O)c1cc(Sc2cccc(Cl)c2Cl)ccn1 | inconclusive: 15.8 µM [inhibitor, single point] | – |
| CC1=NN(c2ccc(C(=O)O)cc2)C(=O)/C1=C/c1ccc(-c2ccccc2F)o1 | inconclusive: 35.5 µM [inhibitor, single point] | – |
| O=C(O)c1cc(NCc2ccc3c(c2)OCO3)ccc1N1CCOCC1 | – | inactive: 11.6% |
| CCOC(=O)N1CCN(CC(=O)Nc2c(C(=O)OC)[nH]c3ccc(Cl)cc23)CC1 | inconclusive: 17.8 µM [inhibitor, single point] | – |
| COc1cc2oc(=O)c3c4c(cc5ccc(c1CCN(C)C)c2c53)OCO4 | inconclusive: 1.26 µM [inhibitor, partial curve] | – |
| COC(=O)c1ccc(CN2CCN(C(C)C)C(CCO)C2)cc1 (stereo not given) | inconclusive: 8.91 µM [activator, partial curve] | – |
| COc1cccc(C(=O)CN(C(=O)c2ccc(Cl)c(Cl)c2)N2C(=O)c3ccccc3C2=O)c1 | – | inactive: 16.3% |
| O=C(Nc1cccnc1)c1ccccc1NS(=O)(=O)c1ccc(F)cc1 | inconclusive: 17.8 µM [activator, single point] | – |
| COc1ccc(Cl)cc1C(=O)Nc1ccc(NC(=O)C(C)C)cc1 | – | inactive: 11.5% |
| CCN(CC)CCOC(=O)c1ccc(N/C=C(/C#N)c2nc(-c3ccc(OC)cc3)cs2)cc1 | – | inactive: -31.3% |
| CSc1ncc(CN2CCCC(C(=O)c3ccc(C(C)(C)C)cc3)C2)cn1 (stereo not given) | inconclusive: 14.1 µM [activator, single point] | – |
| O=C(Nc1ccccc1N1CCCC1)c1cccc(-c2cc3ccccc3oc2=O)c1 | inconclusive: 5.62 µM [activator, partial curve] | – |
| CCC(=O)Nc1ccc(-c2cc(-c3ccccc3)nc(-c3ccc(NC(=O)CC)cc3)n2)cc1 | active: 8.91 µM | – |
| COc1ccc(/C=C/C(=O)NC(=S)NNC(=O)Cc2cccs2)cc1 | active: 11.2 µM | – |
| CN(C)/C=C1\N=C(c2ccc(Cl)cc2Cl)OC1=O | inconclusive: 1 µM [activator, partial curve] | – |

| Structure (SMILES) | Potency | activity change, negative = inhibition |
| --- | --- | --- |
| CCN(C(=O)CSc1ncccc1C(=O)OC(C)C)c1cccc(C)c1 | inconclusive: 35.5 µM [inhibitor, single point] | – |
| COc1ccc(O[C@H]2C=C[C@@H](c3ccccc3)O[C@@H]2CO/N=C/C[C@@H]2C=C[C@H](OC(C)=O)[C@@H](COC(C)=O)O2)cc1 | inconclusive: 15.8 µM [activator, partial curve] | – |
| COc1ccc(NC(=O)CSc2nnc(-c3ccco3)c(-c3ccco3)n2)cc1OC | inconclusive: 17.8 µM [activator, single point] | – |
| Cc1c(O)c(O)cc2c1oc1c3ccccc3oc(=O)c21 | active: 7.08 µM | – |
| Cc1ccc(NC(=O)CN2CCc3ccccc3C2)cc1F | – | inactive: 44.7% |
| Cn1c(Cc2nc(-c3cnccn3)no2)nnc1SCC(=O)Nc1ccccc1 | – | inactive: 18.2% |
| Nc1ccccc1N=Cc1ccc(-c2cccc(Cl)c2)o1 | inconclusive: 8.91 µM [inhibitor, partial curve, poor fit] | – |
| Cc1ccc(CC2C(=O)N(c3cc(C)ccc3C)C(=O)C2C)cc1 (stereo not given) | inconclusive: 0.178 µM [activator, full curve] | – |
| O=C(CN1CCN(C(c2ccccc2)c2ccccc2)CC1)N1CCOCC1 | – | inactive: 0.164% |
| Cc1cc(NC(=O)CCCS(=O)(=O)c2nc(-c3cccs3)cc(C(F)(F)F)n2)no1 | active: 5.62 µM | – |
| CC(=O)N1CCN(c2ccc(NC(=O)c3cccc(Cl)c3)cc2)CC1 | inconclusive: 8.91 µM [activator, partial curve, poor fit] | – |
| CCC(C)NC(=O)C(NS(=O)(=O)c1cccc2nsnc12)c1ccccc1 (stereo not given) | – | inactive: 18.8% |
| O=C(/C(=C\c1ccccc1)c1nc2ccccc2[nH]1)c1ccc(Cl)cc1 | inconclusive: 12.6 µM [inhibitor, single point] | – |
| CS(=O)(=O)c1ccc(CNC(=O)[C@H]2C[C@@H]2[C@H](NP(=O)(c2ccccc2)c2ccccc2)c2ccccc2)cc1 | – | inactive: 24.5% |
| O=C(Nc1cccc(-n2cccn2)c1)C1CCCN(Cc2ccccc2F)C1 (stereo not given) | inconclusive: 0.631 µM [inhibitor, full curve, poor fit] | – |
| CCOC(=O)c1cc2c(ccn2C)n1Cc1ccc(Cl)cc1 | inconclusive: 11.2 µM [activator, partial curve] | – |
| CN1CCN(S(=O)(=O)c2ccc(NC(=S)NC(=O)C3CCCC3)cc2)CC1 | inconclusive: 22.4 µM [inhibitor, single point] | – |
| CC(C)C(=O)NC(=S)N(Cc1ccccc1)Cc1ccccc1 | active: 2.82 µM | – |
| COC(=O)C(C)Sc1snnc1-c1ccccc1 (stereo not given) | – | inactive: -39.2% |
| O=C(NCCO)c1nc(NCCO)c2ccccc2n1 | – | inactive: 12.2% |
| CCc1cccc(NC(=O)C2CCN(S(=O)(=O)c3c(C)noc3C)CC2)c1 | – | inactive: 26.2% |
| N#CCCn1nc(-c2ccccc2)cc1Nc1ccccc1NC(=O)C(F)(F)F | inconclusive: 22.4 µM [activator, partial curve] | – |
